# Data published in paper PMC5996148.
# This is one part of the list. For some of these results: The source does not settle which construct or isoform was used.
# How the values were obtained:
# Experiment in all cases: protein microarray (ProtoArray v5.0), streptavidin-Alexa Fluor 647
# Conditions in all cases: 3'-biotin; 20 mM Tris (pH 7.5), 5 mM MgCl2, 100 mM KCl, 0.1% Tween-20, A/T-rich and random oligonucleotide blockers; temperature not stated; high values mean tight binding
# [1] = system: GSTM3 (human)
# [2] = system: GSTP1 (human)
# [3] = system: GTF2E1 (human)
# [4] = system: GTF2H5 (human)
# [5] = system: GTF2I (human)
# [6] = system: GTP-binding nuclear protein Ran (human)
# [7] = system: GTPBP8 (human)
# [8] = system: GUCA1A (human)
# [9] = molecular target: T1, GYG2 (UniProt O15488)
# T1 sequence: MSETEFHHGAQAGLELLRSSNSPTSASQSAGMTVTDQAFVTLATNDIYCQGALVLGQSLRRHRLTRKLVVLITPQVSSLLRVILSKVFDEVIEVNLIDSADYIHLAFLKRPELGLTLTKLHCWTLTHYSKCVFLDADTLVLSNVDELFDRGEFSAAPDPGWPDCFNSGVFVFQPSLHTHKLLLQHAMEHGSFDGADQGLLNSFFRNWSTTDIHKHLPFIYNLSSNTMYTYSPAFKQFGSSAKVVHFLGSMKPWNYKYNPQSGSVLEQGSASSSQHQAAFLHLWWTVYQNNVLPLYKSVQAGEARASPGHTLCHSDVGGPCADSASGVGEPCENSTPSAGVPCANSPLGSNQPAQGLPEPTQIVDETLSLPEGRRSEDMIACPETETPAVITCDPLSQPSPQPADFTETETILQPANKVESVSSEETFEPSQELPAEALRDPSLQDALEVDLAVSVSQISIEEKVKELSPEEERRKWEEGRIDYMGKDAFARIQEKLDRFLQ
# [10] = molecular target: T2, GYPC (UniProt P04921)
# T2 sequence: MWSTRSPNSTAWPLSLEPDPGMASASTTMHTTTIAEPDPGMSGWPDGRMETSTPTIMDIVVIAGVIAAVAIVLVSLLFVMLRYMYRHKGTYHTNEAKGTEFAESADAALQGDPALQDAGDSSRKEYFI
sequence,measurement,setting,value
GGTGACAGGGGTATGGGGAGGGG [G4-2 biotinylated (Ct1)],binding signal,[1],-0.399 z-score
same,binding signal,[2],-0.381 z-score
same,binding signal,[3],-0.381 z-score
same,binding signal,[4],-0.393 z-score
same,binding signal,[5],-0.396 z-score
same,binding signal,[6],-0.392 z-score
same,binding signal,[7],-0.372 z-score
same,binding signal,[8],-0.399 z-score
same,binding signal,[9],-0.398 z-score
same,binding signal,[10],-0.394 z-score
